Assay results as given in paper doi:10.1101/2022.06.10.494364.
These are yes or no findings as the source states them, for the method shown. Binding seen in cells or lysates may run through a third protein. Some entries that bind do so weakly or less than the wild type.

By UniProt entry, the sequences of proteins in these tests, tags left out.
UniProt P42229: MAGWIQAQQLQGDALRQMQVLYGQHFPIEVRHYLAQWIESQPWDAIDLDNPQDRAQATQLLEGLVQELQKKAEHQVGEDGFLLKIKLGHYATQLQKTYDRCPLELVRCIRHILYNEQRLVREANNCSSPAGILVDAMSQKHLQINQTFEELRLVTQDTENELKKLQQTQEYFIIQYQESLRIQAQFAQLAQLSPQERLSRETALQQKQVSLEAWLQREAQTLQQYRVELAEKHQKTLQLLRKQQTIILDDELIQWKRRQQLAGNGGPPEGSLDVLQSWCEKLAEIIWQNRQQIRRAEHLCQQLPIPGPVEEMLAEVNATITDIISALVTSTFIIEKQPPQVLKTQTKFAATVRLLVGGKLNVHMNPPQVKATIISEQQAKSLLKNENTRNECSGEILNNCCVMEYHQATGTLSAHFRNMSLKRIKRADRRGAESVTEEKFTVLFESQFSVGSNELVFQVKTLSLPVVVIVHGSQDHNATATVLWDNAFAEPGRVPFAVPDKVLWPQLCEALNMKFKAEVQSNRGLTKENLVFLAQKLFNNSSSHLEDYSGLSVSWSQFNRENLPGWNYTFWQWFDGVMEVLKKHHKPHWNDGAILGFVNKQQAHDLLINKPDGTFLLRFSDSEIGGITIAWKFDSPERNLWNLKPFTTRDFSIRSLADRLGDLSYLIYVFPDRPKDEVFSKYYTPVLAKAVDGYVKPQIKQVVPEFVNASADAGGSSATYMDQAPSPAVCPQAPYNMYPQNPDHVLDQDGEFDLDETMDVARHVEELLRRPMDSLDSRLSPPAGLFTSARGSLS
UniProt P51692: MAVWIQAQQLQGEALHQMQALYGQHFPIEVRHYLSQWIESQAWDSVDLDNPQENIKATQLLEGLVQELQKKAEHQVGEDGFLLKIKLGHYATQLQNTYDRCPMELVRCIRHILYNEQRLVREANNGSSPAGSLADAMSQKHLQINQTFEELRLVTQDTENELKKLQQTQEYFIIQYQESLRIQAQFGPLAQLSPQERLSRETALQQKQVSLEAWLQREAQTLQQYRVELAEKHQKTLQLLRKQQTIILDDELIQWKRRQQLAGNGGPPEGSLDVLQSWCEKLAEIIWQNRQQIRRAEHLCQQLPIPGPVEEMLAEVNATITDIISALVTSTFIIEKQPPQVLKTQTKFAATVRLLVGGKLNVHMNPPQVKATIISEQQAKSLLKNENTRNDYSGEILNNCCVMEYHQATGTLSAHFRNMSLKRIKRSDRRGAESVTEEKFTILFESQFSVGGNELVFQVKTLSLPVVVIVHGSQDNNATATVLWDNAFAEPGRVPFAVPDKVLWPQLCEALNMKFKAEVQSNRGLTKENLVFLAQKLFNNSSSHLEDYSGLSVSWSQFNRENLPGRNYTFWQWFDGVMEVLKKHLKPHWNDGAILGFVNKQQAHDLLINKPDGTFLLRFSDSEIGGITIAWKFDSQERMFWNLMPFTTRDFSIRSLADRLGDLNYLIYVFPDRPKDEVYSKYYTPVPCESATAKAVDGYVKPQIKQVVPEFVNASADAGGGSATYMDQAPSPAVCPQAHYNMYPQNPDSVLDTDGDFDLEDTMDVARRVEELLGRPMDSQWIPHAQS
UniProt Q07912: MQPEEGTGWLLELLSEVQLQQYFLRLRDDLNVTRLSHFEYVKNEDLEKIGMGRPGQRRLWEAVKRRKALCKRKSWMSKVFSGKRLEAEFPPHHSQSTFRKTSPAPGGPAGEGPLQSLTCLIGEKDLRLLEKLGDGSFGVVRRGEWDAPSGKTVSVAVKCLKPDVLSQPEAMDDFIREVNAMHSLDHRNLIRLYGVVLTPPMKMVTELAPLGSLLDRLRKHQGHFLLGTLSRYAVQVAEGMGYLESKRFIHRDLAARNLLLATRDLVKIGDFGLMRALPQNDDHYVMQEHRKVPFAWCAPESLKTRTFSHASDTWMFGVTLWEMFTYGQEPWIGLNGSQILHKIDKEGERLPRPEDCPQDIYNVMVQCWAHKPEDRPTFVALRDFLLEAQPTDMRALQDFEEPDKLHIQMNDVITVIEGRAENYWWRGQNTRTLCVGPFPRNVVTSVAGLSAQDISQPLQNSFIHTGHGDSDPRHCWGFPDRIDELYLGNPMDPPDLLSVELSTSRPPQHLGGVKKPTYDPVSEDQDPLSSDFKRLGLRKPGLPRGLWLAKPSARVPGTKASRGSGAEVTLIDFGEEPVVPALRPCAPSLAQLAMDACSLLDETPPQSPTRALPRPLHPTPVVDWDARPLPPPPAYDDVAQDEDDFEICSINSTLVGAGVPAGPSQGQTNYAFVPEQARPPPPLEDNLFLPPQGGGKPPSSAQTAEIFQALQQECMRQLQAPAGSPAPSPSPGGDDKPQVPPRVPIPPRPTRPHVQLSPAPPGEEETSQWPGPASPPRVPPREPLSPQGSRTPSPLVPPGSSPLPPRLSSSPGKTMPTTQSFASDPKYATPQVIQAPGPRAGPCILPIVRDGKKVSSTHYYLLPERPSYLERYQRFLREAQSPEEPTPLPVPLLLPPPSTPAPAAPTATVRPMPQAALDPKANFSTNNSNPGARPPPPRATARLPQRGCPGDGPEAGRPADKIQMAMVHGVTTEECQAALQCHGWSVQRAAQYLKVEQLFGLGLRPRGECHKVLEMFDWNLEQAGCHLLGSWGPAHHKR

Columns and labels:
FLAG-STAT5A = FLAG-STAT5A (UniProt P42229); test: co-IP
FLAG-STAT5B = FLAG-STAT5B (UniProt P51692); test: co-IP

binding (FLAG-STAT5A): binds
binding (FLAG-STAT5B): binds
Substance: HA-ACK (wild type activated Cdc42-associated kinase) (from UniProt Q07912 1-1038) (enzyme)
